Earlier results as cited in US11471434B2, “Treatment for migraine” (INTRABIO LTD., priority 2017, dated 2022).
For at least one compound, name, drawing or mass did not settle the structure.

System: migraine attack
Conditions: single intravenous dose added to standard treatment; following 72 hours (Colman 2008); cited from earlier work

**Q.** Which “decrease in headache recurrence” value does the source give for `C[C@@H]1C[C@H]2[C@@H]3CCC4=CC(=O)C=C[C@]4(C)[C@@]3(F)[C@@H](O)C[C@]2(C)[C@@]1(O)C(=O)CO` [dexamethasone] here?
**A.** 26%
